This is one part of the list.
What was measured:
Assay in all cases: glycan array binding signal (z-score within array); higher = stronger binding
Details in all cases: glycan notation: IUPAC condensed, linker removed
Fuc(a1-2)Gal = biological target: Fuc(a1-2)Gal
In short: (§1)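 Glycan array data came from 3228 arrays in the Consortium for Functional Glycomics database, and only arrays with an available protein sequence were kept. Glycan names were put into IUPAC-condensed notation, and columns mapping to the same glycan were averaged. The binding signal is a within-array Z-score, averaged across arrays of one protein sequence run at different concentrations or buffers and across linkers. A negative Z-score can be read as non-binding.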

Fuc(a1-2)Gal(b1-3)GalNAc = biological target: Fuc(a1-2)Gal(b1-3)GalNAc
In short: as §1

[1] = biological target: Fuc(a1-2)Gal(b1-3)GalNAc(a1-3)[Fuc(a1-2)]Gal(b1-4)Glc
In short: as §1

[2] = biological target: Fuc(a1-2)Gal(b1-3)GalNAc(a1-3)[Fuc(a1-2)]Gal(b1-4)GlcNAc
In short: as §1

[3] = biological target: Fuc(a1-2)Gal(b1-3)GalNAc(b1-3)Gal
In short: as §1

[4] = biological target: Fuc(a1-2)Gal(b1-3)GalNAc(b1-3)Gal(a1-4)Gal(b1-4)Glc
In short: as §1

[5] = biological target: Fuc(a1-2)Gal(b1-3)GalNAc(b1-4)[Neu5Ac(a2-3)]Gal(b1-4)Glc
In short: as §1

Fuc(a1-2)Gal(b1-3)GlcNAc = biological target: Fuc(a1-2)Gal(b1-3)GlcNAc
In short: as §1

[6] = biological target: Fuc(a1-2)Gal(b1-3)GlcNAc(b1-2)Man(a1-3)[Fuc(a1-2)Gal(b1-3)GlcNAc(b1-2)Man(a1-6)]Man(b1-4)GlcNAc(b1-4)GlcNAc
In short: as §1

[7] = biological target: Fuc(a1-2)Gal(b1-3)GlcNAc(b1-2)Man(a1-3)[Fuc(a1-2)Gal(b1-3)GlcNAc(b1-2)Man(a1-6)]Man(b1-4)GlcNAc(b1-4)[Fuc(a1-6)]GlcNAc
In short: as §1

[8] = biological target: Fuc(a1-2)Gal(b1-3)GlcNAc(b1-3)Gal(b1-4)Glc
In short: as §1

[9] = biological target: Fuc(a1-2)Gal(b1-3)GlcNAc(b1-3)GalNAc
In short: as §1

[10] = biological target: Fuc(a1-2)Gal(b1-3)GlcNAc(b1-3)[Fuc(a1-2)Gal(b1-3)GlcNAc(b1-6)]GalNAc
In short: as §1

[11] = biological target: Fuc(a1-2)Gal(b1-3)GlcNAc(b1-3)[Gal(b1-4)GlcNAc(b1-6)]Gal(b1-4)Glc
In short: as §1

[12] = biological target: Fuc(a1-2)Gal(b1-3)GlcNAc(b1-3)[Neu5Ac(a2-6)Gal(b1-4)GlcNAc(b1-6)]Gal(b1-4)Glc
In short: as §1

[13] = biological target: Fuc(a1-2)Gal(b1-3)GlcNAc6S
In short: as §1

[14] = biological target: Fuc(a1-2)Gal(b1-3)[Fuc(a1-4)]GlcNAc
In short: as §1

[15] = biological target: Fuc(a1-2)Gal(b1-3)[Fuc(a1-4)]GlcNAc(b1-2)Man(a1-3)[Fuc(a1-2)Gal(b1-3)[Fuc(a1-4)]GlcNAc(b1-2)Man(a1-3)]Man(b1-4)GlcNAc(b1-4)GlcNAc
In short: as §1

[16] = biological target: Fuc(a1-2)Gal(b1-3)[Fuc(a1-4)]GlcNAc(b1-2)Man(a1-3)[Fuc(a1-2)Gal(b1-3)[Fuc(a1-4)]GlcNAc(b1-2)Man(a1-6)]Man(b1-4)GlcNAc(b1-4)[Fuc(a1-6)]GlcNAc(b1-4)[Fuc(a1-6)]GlcNAc
In short: as §1

[17] = biological target: Fuc(a1-2)Gal(b1-3)[Fuc(a1-4)]GlcNAc(b1-3)[Fuc(a1-3)[Gal(b1-4)]GlcNAc(b1-6)]Gal(b1-4)Glc
In short: as §1

[18] = biological target: Fuc(a1-2)Gal(b1-3)[Fuc(a1-4)]GlcNAc(b1-3)[Gal(b1-4)GlcNAc(b1-6)]Gal(b1-4)Glc
In short: as §1

Fuc(a1-2)Gal(b1-4)Glc = biological target: Fuc(a1-2)Gal(b1-4)Glc
In short: as §1

Fuc(a1-2)Gal(b1-4)Glc6S = biological target: Fuc(a1-2)Gal(b1-4)Glc6S
In short: as §1

Fuc(a1-2)Gal(b1-4)GlcNAc = biological target: Fuc(a1-2)Gal(b1-4)GlcNAc
In short: as §1

[19] = biological target: Fuc(a1-2)Gal(b1-4)GlcNAc(b1-2)Man
In short: as §1

[20] = biological target: Fuc(a1-2)Gal(b1-4)GlcNAc(b1-2)Man(a1-3)[Fuc(a1-2)Gal(b1-4)GlcNAc(b1-2)Man(a1-6)]Man(b1-4)GlcNAc(b1-4)GlcNAc
In short: as §1

[21] = biological target: Fuc(a1-2)Gal(b1-4)GlcNAc(b1-2)Man(a1-3)[Fuc(a1-2)Gal(b1-4)GlcNAc(b1-2)Man(a1-6)]Man(b1-4)GlcNAc(b1-4)[Fuc(a1-6)]GlcNAc
In short: as §1

[22] = biological target: Fuc(a1-2)Gal(b1-4)GlcNAc(b1-2)[Fuc(a1-2)Gal(b1-4)GlcNAc(b1-4)]Man(a1-3)[Fuc(a1-2)Gal(b1-4)GlcNAc(b1-2)Man(a1-6)]Man(b1-4)GlcNAc(b1-4)GlcNAc
In short: as §1

[23] = biological target: Fuc(a1-2)Gal(b1-4)GlcNAc(b1-3)Gal(b1-4)GlcNAc
In short: as §1

[24] = biological target: Fuc(a1-2)Gal(b1-4)GlcNAc(b1-3)Gal(b1-4)GlcNAc(b1-2)Man(a1-3)[Fuc(a1-2)Gal(b1-4)GlcNAc(b1-3)Gal(b1-4)GlcNAc(b1-2)Man(a1-6)]Man(b1-4)GlcNAc(b1-4)GlcNAc
In short: as §1

[25] = biological target: Fuc(a1-2)Gal(b1-4)GlcNAc(b1-3)Gal(b1-4)GlcNAc(b1-3)Gal(b1-4)GlcNAc
In short: as §1

[26] = biological target: Fuc(a1-2)Gal(b1-4)GlcNAc(b1-3)GalNAc
In short: as §1

[27] = biological target: Fuc(a1-2)Gal(b1-4)GlcNAc(b1-3)[Fuc(a1-2)Gal(b1-4)GlcNAc(b1-6)]GalNAc
In short: as §1

[28] = biological target: Fuc(a1-2)Gal(b1-4)GlcNAc(b1-3)[Fuc(a1-3)[Gal(b1-4)]GlcNAc(b1-6)]Gal(b1-4)Glc
In short: as §1

[29] = biological target: Fuc(a1-2)Gal(b1-4)GlcNAc(b1-6)GalNAc
In short: as §1

[30] = biological target: Fuc(a1-2)Gal(b1-4)GlcNAc6S
In short: as §1

[31] = biological target: Fuc(a1-2)Gal(b1-4)[Fuc(a1-3)]GlcNAc
In short: as §1

[32] = biological target: Fuc(a1-2)Gal(b1-4)[Fuc(a1-3)]GlcNAc(b1-2)Man(a1-3)[Fuc(a1-2)Gal(b1-4)[Fuc(a1-3)]GlcNAc(b1-2)Man(a1-6)]Man(b1-4)GlcNAc(b1-4)[Fuc(a1-6)]GlcNAc
In short: as §1

[33] = biological target: Fuc(a1-2)Gal(b1-4)[Fuc(a1-3)]GlcNAc(b1-2)[Fuc(a1-2)Gal(b1-4)[Fuc(a1-3)]GlcNAc(b1-4)]Man(a1-3)[Fuc(a1-2)Gal(b1-4)[Fuc(a1-3)]GlcNAc(b1-2)Man(a1-6)]Man(b1-4)GlcNAc(b1-4)GlcNAc
In short: as §1

[34] = biological target: Fuc(a1-2)Gal(b1-4)[Fuc(a1-3)]GlcNAc(b1-3)Gal(b1-4)[Fuc(a1-3)]GlcNAc
In short: as §1

[35] = biological target: Fuc(a1-2)Gal(b1-4)[Fuc(a1-3)]GlcNAc(b1-3)Gal(b1-4)[Fuc(a1-3)]GlcNAc(b1-3)Gal(b1-4)[Fuc(a1-3)]GlcNAc
In short: as §1

[36] = biological target: Fuc(a1-2)Gal(b1-4)[Fuc(a1-3)]GlcNAc(b1-3)GalNAc
In short: as §1

[37] = biological target: Fuc(a1-2)Gal(b1-4)[Fuc(a1-3)]GlcNAc(b1-3)[Neu5Ac(a2-6)Gal(b1-4)GlcNAc(b1-6)]Gal(b1-4)Glc
In short: as §1

[38] = biological target: Fuc(a1-2)Gal3S(b1-4)GlcNAc
In short: as §1

[39] = biological target: Fuc(a1-2)Gal6S(b1-3)GlcNAc
In short: as §1

B1: PX9916F-bfa-443-24-443 (Bacteroides fragilis) (protein)
chain: DIRPVGSVIPQTAEEYRALLARAYLNVPNDRGLACLRSDEMLVNDNEYDRNSYGDIERWNDVSPFPGTSQFTWSNFYNVLFIANQVIESQKEITEGTPEVVNQLVGEAHLLRAYLHFVLVNLHGQPYTKSGALNSKSIPLKLDTDLEKTLGRNTVEEVYTSILSDIEHARELINKEKWETVFSYRFNVLSVDALQSRVSLYMGAWPKCLESAEAVLAKKSVLVDMNETPLALPNHFESVESITALEQVMGSSVNNAVWVPATFLALYQEGDKRLAAYFAAPDENGNRKSSKGGKREFSCTFRVGELYLNAAEAAANMDKLPHARMRLLELMRKRYTPEAYDKKENAVNVMDKNALISEILNERARELAFEGHRWFDLRRTTRPRMVKVLQGKTYILEQDDPRYTIPIPRDAIAANPGLAN
- glycan array binding signal (z-score) (Fuc(a1-2)Gal): 0.215
- glycan array binding signal (z-score) (Fuc(a1-2)Gal(b1-3)GalNAc): 0.079
- glycan array binding signal (z-score) [1]: -0.506
- glycan array binding signal (z-score) [2]: -0.051
- glycan array binding signal (z-score) [3]: 0.673
- glycan array binding signal (z-score) [4]: -0.012
- glycan array binding signal (z-score) [5]: -0.891
- glycan array binding signal (z-score) (Fuc(a1-2)Gal(b1-3)GlcNAc): -0.185
- glycan array binding signal (z-score) [6]: 3.24
- glycan array binding signal (z-score) [7]: 0.444
- glycan array binding signal (z-score) [8]: -0.998
- glycan array binding signal (z-score) [9]: 0.31
- glycan array binding signal (z-score) [10]: -0.372
- glycan array binding signal (z-score) [11]: 1.47
- glycan array binding signal (z-score) [12]: -0.429
- glycan array binding signal (z-score) [13]: -0.338
- glycan array binding signal (z-score) [14]: 0.301
- glycan array binding signal (z-score) [15]: -0.043
- glycan array binding signal (z-score) [16]: 0.523
- glycan array binding signal (z-score) [17]: -0.27
- glycan array binding signal (z-score) [18]: 1.83
- glycan array binding signal (z-score) (Fuc(a1-2)Gal(b1-4)Glc): -1.03
- glycan array binding signal (z-score) (Fuc(a1-2)Gal(b1-4)Glc6S): 0.015
- glycan array binding signal (z-score) (Fuc(a1-2)Gal(b1-4)GlcNAc): -0.289
- glycan array binding signal (z-score) [19]: 0.848
- glycan array binding signal (z-score) [20]: 0.225
- glycan array binding signal (z-score) [21]: -0.092
- glycan array binding signal (z-score) [22]: 0.619
- glycan array binding signal (z-score) [23]: -0.888
- glycan array binding signal (z-score) [24]: -0.159
- glycan array binding signal (z-score) [25]: -0.637
- glycan array binding signal (z-score) [26]: 0.279
- glycan array binding signal (z-score) [27]: 0.024
- glycan array binding signal (z-score) [28]: -1.05
- glycan array binding signal (z-score) [29]: 1.4
- glycan array binding signal (z-score) [30]: -0.807
- glycan array binding signal (z-score) [31]: -0.386
- glycan array binding signal (z-score) [32]: 1.08
- glycan array binding signal (z-score) [33]: 2.44
- glycan array binding signal (z-score) [34]: -0.773
- glycan array binding signal (z-score) [35]: 0.451
- glycan array binding signal (z-score) [36]: -0.044
- glycan array binding signal (z-score) [37]: 1.41
- glycan array binding signal (z-score) [38]: 0.095
- glycan array binding signal (z-score) [39]: -0.051
